# PubChem BioAssay AID743121, NCATS – 2013
# Assay: 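Partners whose loss is lethal together with topoisomerase I blockade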 (primary screen)
# Cell system: MDA-MB-231 cells, a human breast cancer line
# Reagent: single siRNA against human genes, 20 nM siRNA (0.8 pmol per well)
# Timing: 120 h (drug added 48 h after transfection, read 72 h later)
# Challenge: camptothecin 20 nM (about EC30) for 72 h; vehicle 0.1% DMSO in parallel plates
# Measured: 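CellTiter-Glo ATP signal, scaled to control siRNA as percent viability; sensitisation given as log2 of untreated divided by camptothecin-treated viability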
# Direction: log2 vehicle/camptothecin viability: higher = stronger sensitisation to camptothecin
# Hit rule: 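Active genes have an RSA gene-level p-value below 0.001, computed from the ratios of their separate siRNAs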
# Shown is a random part of about 26,000 reagents. 167 of all reagents (0.63%) count as active. 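Calls are per gene from RSA p-values that are not deposited; an individual active-marked siRNA can sensitise only weakly.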 Reagents against one gene are numbered here. Not all columns of the deposit are shown.
Target gene,reagent,log2 vehicle/camptothecin viability,activity call
DPYSL2 (dihydropyrimidinase like 2),1,0.195,inactive
DPYSL2 (dihydropyrimidinase like 2),2,-0.0823,inactive
DPYSL2 (dihydropyrimidinase like 2),3,-0.182,inactive
GNG2 (G protein subunit gamma 2),1,0.559,inactive
GNG2 (G protein subunit gamma 2),2,-0.681,inactive
GNG2 (G protein subunit gamma 2),3,-0.469,inactive
GNG2 (G protein subunit gamma 2),4,-0.183,inactive
CDKN1A (cyclin dependent kinase inhibitor 1A),1,-0.0836,inactive
CDKN1A (cyclin dependent kinase inhibitor 1A),2,-0.313,inactive
CDKN1A (cyclin dependent kinase inhibitor 1A),3,-0.022,inactive
CDKN1A (cyclin dependent kinase inhibitor 1A),4,-0.237,inactive
PRSS23 (serine protease 23),1,-0.198,inactive
PRSS23 (serine protease 23),2,-0.508,inactive
PRSS23 (serine protease 23),3,-0.359,inactive
PRSS23 (serine protease 23),4,0.0507,inactive
ID3 (inhibitor of DNA binding 3),1,0.0552,inactive
ID3 (inhibitor of DNA binding 3),2,-0.00863,inactive
ID3 (inhibitor of DNA binding 3),3,-0.0634,inactive
ID3 (inhibitor of DNA binding 3),4,-0.059,inactive
CDK13 (cyclin dependent kinase 13),1,0.0505,inactive
CDK13 (cyclin dependent kinase 13),2,0.184,inactive
CDK13 (cyclin dependent kinase 13),3,-0.201,inactive
CDK13 (cyclin dependent kinase 13),4,-0.0999,inactive
PTK2 (protein tyrosine kinase 2),1,-0.289,inactive
PTK2 (protein tyrosine kinase 2),2,-0.349,inactive
PTK2 (protein tyrosine kinase 2),3,-0.317,inactive
PTK2 (protein tyrosine kinase 2),4,0.429,inactive
MSGN1 (mesogenin 1),1,-0.247,inactive
MSGN1 (mesogenin 1),2,0.242,inactive
MSGN1 (mesogenin 1),3,0.321,inactive
MSGN1 (mesogenin 1),4,-0.249,inactive
HTRA3 (HtrA serine peptidase 3),1,-0.568,inactive
HTRA3 (HtrA serine peptidase 3),2,-0.288,inactive
HTRA3 (HtrA serine peptidase 3),3,-0.161,inactive
HTRA3 (HtrA serine peptidase 3),4,-0.455,inactive
OXER1 (oxoeicosanoid receptor 1),1,-0.0898,inactive
OXER1 (oxoeicosanoid receptor 1),2,-0.475,inactive
OXER1 (oxoeicosanoid receptor 1),3,0.469,inactive
OXER1 (oxoeicosanoid receptor 1),4,0.522,inactive
KLK12 (kallikrein related peptidase 12),1,-0.239,inactive
KLK12 (kallikrein related peptidase 12),2,0.0935,inactive
KLK12 (kallikrein related peptidase 12),3,-0.229,inactive
KLK12 (kallikrein related peptidase 12),4,0.183,inactive
IL4R (interleukin 4 receptor),1,-0.0855,inactive
IL4R (interleukin 4 receptor),2,-0.337,inactive
IL4R (interleukin 4 receptor),3,-0.495,inactive
CLEC4E (C-type lectin domain family 4 member E),1,0.0877,inactive
CLEC4E (C-type lectin domain family 4 member E),2,0.0802,inactive
CLEC4E (C-type lectin domain family 4 member E),3,-0.138,inactive
CLEC4E (C-type lectin domain family 4 member E),4,-0.237,inactive
CD72 (CD72 molecule),1,-0.574,inactive
CD72 (CD72 molecule),2,0.0978,inactive
CD72 (CD72 molecule),3,0.357,inactive
CD72 (CD72 molecule),4,-0.27,inactive
ERAS (ES cell expressed Ras),1,0.162,inactive
ERAS (ES cell expressed Ras),2,0.312,inactive
ERAS (ES cell expressed Ras),3,-0.406,inactive
ERAS (ES cell expressed Ras),4,0.693,inactive
PLTP (phospholipid transfer protein),1,0.223,inactive
PLTP (phospholipid transfer protein),2,-0.158,inactive
PLTP (phospholipid transfer protein),3,-0.15,inactive
PLTP (phospholipid transfer protein),4,-0.413,inactive
DNAJB7 (DnaJ heat shock protein family (Hsp40) member B7),1,-0.0313,inactive
DNAJB7 (DnaJ heat shock protein family (Hsp40) member B7),2,-0.55,inactive
DNAJB7 (DnaJ heat shock protein family (Hsp40) member B7),3,0.421,inactive
GPR78 (G protein-coupled receptor 78),1,-0.141,inactive
GPR78 (G protein-coupled receptor 78),2,-0.326,inactive
GPR78 (G protein-coupled receptor 78),3,-0.296,inactive
GPR78 (G protein-coupled receptor 78),4,0.0973,inactive
UBASH3B (ubiquitin associated and SH3 domain containing B),1,-0.097,inactive
UBASH3B (ubiquitin associated and SH3 domain containing B),2,0.179,inactive
UBASH3B (ubiquitin associated and SH3 domain containing B),3,0.104,inactive
"RAB23 (RAB23, member RAS oncogene family)",1,0.0724,inactive
"RAB23 (RAB23, member RAS oncogene family)",2,-0.273,inactive
"RAB23 (RAB23, member RAS oncogene family)",3,-0.134,inactive
RTN4RL2 (reticulon 4 receptor like 2),1,0.0582,inactive
RTN4RL2 (reticulon 4 receptor like 2),2,0.11,inactive
RTN4RL2 (reticulon 4 receptor like 2),3,0.086,inactive
RTN4RL2 (reticulon 4 receptor like 2),4,-0.16,inactive
GIP (gastric inhibitory polypeptide),1,-0.189,inactive
GIP (gastric inhibitory polypeptide),2,-0.369,inactive
GIP (gastric inhibitory polypeptide),3,0.141,inactive
GIP (gastric inhibitory polypeptide),4,-0.161,inactive
MOB1A (MOB kinase activator 1A),1,-0.0383,inactive
MOB1A (MOB kinase activator 1A),2,0.233,inactive
MOB1A (MOB kinase activator 1A),3,-0.512,inactive
MOB1A (MOB kinase activator 1A),4,0.0828,inactive

No new results follow: 6 of the entries above.
Target gene,reagent,log2 vehicle/camptothecin viability,activity call
DNAJB7 (DnaJ heat shock protein family (Hsp40) member B7),1,-0.0313,inactive
DNAJB7 (DnaJ heat shock protein family (Hsp40) member B7),2,-0.55,inactive
DNAJB7 (DnaJ heat shock protein family (Hsp40) member B7),3,0.421,inactive
GPR78 (G protein-coupled receptor 78),1,-0.141,inactive
GPR78 (G protein-coupled receptor 78),2,-0.326,inactive
GPR78 (G protein-coupled receptor 78),3,-0.296,inactive
